# Experiments:
# [1] = dyebath with no polyurethane present
# [2] = pH 8.62, 45° C., 4 hours
smiles,measurement,setting,value
"O=C(O)c1cn(C2CC2)c2cc(N3CCNCC3)c(F)cc2c1=O [cipro, ciprofloxacin]",stability of cipro to dyeing conditions (concentration before and after dyeing),[1],little difference between the concentrations before dyeing and after the dyeing
same,Langmuir isotherm distribution coefficient K,[2],5.8963
same,saturation value of cipro on the cPU [S]f,[2]; 0.25-2.0 g/l,0.4421 site/kg

# Source: US20050196375A1, “Methods of applying antibiotic compounds to polyurethane biomaterials using textile dyeing technology” (priority 2000, published 2005)
